Values from PubChem BioAssay AID1508597 (Cure First, 2020).

- Aim: 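Knock-downs altering ovarian cancer cell survival with or without PARP inhibitor rucaparib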 (primary screen)
- Cell system: human ovarian carcinoma lines grown from tumours: OCI-P5x (papillary serous) and OCI-C5x (clear cell)
- Reagent: siRNA pool against human genes, 1.25 pmol siRNA per well
- Duration: 72 h or 96 h, depending on the cell culture
- Treatment: rucaparib 20 µM (about IC30) or vehicle, present until read-out
- Rucaparib or vehicle: Vehicle
- Cell line: OCI-C5x (clear cell)
- Read-out: 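ATP luminescence measured at 72 or 96 h according to the culture, then normalised and expressed as percent viability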
- Direction: viability, normalised: higher = more viable cells remaining
- Rule for the call: 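a well counts as a hit if its normalised viability is under 80 percent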
- Calls: active = viability under 80%; inactive = viability 80% or more
This is an unselected part of the about 2,100 reagents, under one of the conditions tested. 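Calls flag viability under 80% in either arm, not effects specific to rucaparib; the reference for percent is not stated.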 Unmarked entries are inactive. No sequences are given here. The record does not give: the 100% reference.

IRAK2, technical replicate 1 scored viability, normalised (%) = 81.4. For IRAK2, technical replicate 2 the deposit lists viability, normalised (%) = 70.3 (active). For IRAK2, technical replicate 3, the entry reads viability, normalised (%) = 66.8 (active). PARP10, technical replicate 1 scored viability, normalised (%) = 47.8 (active). With PARP10, technical replicate 2 the deposit lists viability, normalised (%) = 33 (active). With PARP10, technical replicate 3, the values are viability, normalised (%) = 37.3 (active).

For CDK15, technical replicate 1, the values are viability, normalised (%) = 63.9 (active). For CDK15, technical replicate 2 the deposit lists viability, normalised (%) = 64.1 (active). With CDK15, technical replicate 3, the values are viability, normalised (%) = 80.5. ACTR6, technical replicate 1 showed viability, normalised (%) = 41.9 (active). ACTR6, technical replicate 2 showed viability, normalised (%) = 30.3 (active). ACTR6, technical replicate 3 showed viability, normalised (%) = 40.4 (active).

A few values from above.
Under “viability, normalised (%)”, CDK15, technical replicate 2 reads 64.1 (active)
ACTR6, technical replicate 3, viability, normalised (%) → 40.4 (active)
